Laboratory results from the supplement of paper PMC10689618.
Counter-ions that a name gives are not always drawn. This is one part of the list. Single values are uncertain, as repeats are few or missing.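 Labelled rat cortical synaptosomes were engulfed by primary human fetal astrocytes. Engulfment equaled a red/green ratio, corrected for calcein live-cell signal and normalized to the plate median. Compounds were toxic when calcein dropped over 30%, and reduced phagocytosis when below 70% of the median above 5 µM.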

What was measured:
Settings in all cases: 24 h
Human fetal astrocytes [1] = assay: loss of total cells relative to no-compound high-control median (toxicity); higher = more toxic (fewer cells)
Human fetal astrocytes [2] = assay: as above; remark: listed apart in the source
Human fetal astrocytes [3] = assay: synaptosome phagocytosis (pHrodo/calcein intensity ratio) relative to plate median of data wells; higher = more phagocytosis
Human fetal astrocytes [4] = assay: as above; remark: listed apart in the source

Row | Compound | loss of total cells (Human fetal astrocytes [1]; 1.39 µM) [%] | loss of total cells (Human fetal astrocytes [1]; 2.78 µM) [%] | loss of total cells (Human fetal astrocytes [1]; 5.56 µM) [%] | loss of total cells (Human fetal astrocytes [1]; 11.11 µM) [%] | loss of total cells (Human fetal astrocytes [1]; 22.22 µM) [%] | loss of total cells (Human fetal astrocytes [2]; 1.39 µM) [%] | loss of total cells (Human fetal astrocytes [2]; 2.78 µM) [%] | loss of total cells (Human fetal astrocytes [2]; 5.56 µM) [%] | loss of total cells (Human fetal astrocytes [2]; 11.11 µM) [%] | loss of total cells (Human fetal astrocytes [2]; 22.22 µM) [%] | synaptosome phagocytosis (Human fetal astrocytes [3]; 1.39 µM) [%] | synaptosome phagocytosis (Human fetal astrocytes [3]; 2.78 µM) [%] | synaptosome phagocytosis (Human fetal astrocytes [3]; 5.56 µM) [%] | synaptosome phagocytosis (Human fetal astrocytes [3]; 11.11 µM) [%] | synaptosome phagocytosis (Human fetal astrocytes [3]; 22.22 µM) [%] | synaptosome phagocytosis (Human fetal astrocytes [4]; 1.39 µM) [%] | synaptosome phagocytosis (Human fetal astrocytes [4]; 2.78 µM) [%] | synaptosome phagocytosis (Human fetal astrocytes [4]; 5.56 µM) [%] | synaptosome phagocytosis (Human fetal astrocytes [4]; 11.11 µM) [%] | synaptosome phagocytosis (Human fetal astrocytes [4]; 22.22 µM) [%]
1 | Cc1cccc(C)c1OCC(C)N (stereo not given) [Mexiletene hydrochloride] | -22.3 | -5.9 | 17.4 | 37.1 | 22.4 | -36.3 | 15.9 | -17.4 | 48.9 | 7.8 | 113 | 149 | 79.4 | 122 | 102 | 106 | 95.9 | 114 | 112 | 102
2 | CC(CN(C)C)CN1c2ccccc2CCc2ccccc21 (stereo not given) [Trimipramine maleate] | -3.4 | -29.6 | 0 | -12.6 | -13.2 | -38.7 | -34.9 | 19.3 | 22.6 | 2.8 | 89.4 | 65.4 | 103 | 89.1 | 64.1 | 91.5 | 79.7 | 92.4 | 87.4 | 93.2
3 | O=[N+]([O-])c1cccc2cn[nH]c12 [7-Nitroindazole] | -17.5 | -2.3 | -3.3 | 1.9 | 20.6 | -13.9 | -9 | -15.4 | 17.6 | 9.6 | 125 | 115 | 119 | 139 | 145 | 77 | 98.2 | 108 | 106 | 98.9
4 | COc1ccc(CCN(C)CCCC(C#N)(c2ccc(OC)c(OC)c2)C(C)C)cc1OC (racemic) [(±)-Verapamil hydrochloride] |  |  |  |  |  |  |  |  |  |  | 76.6 | 92.5 | 104 | 116 | 78.1 | 127 | 76.3 | 91.1 | 130 | 103
5 | CNC[C@H](O)c1cccc(O)c1 [Phenylephrine hydrochloride] | -19.4 | 4.1 | -9.9 | -2.9 | 16.8 | -8.6 | -2.4 | -19.5 | -4.9 | 28.9 | 94.2 | 136 | 134 | 93.6 | 111 | 68.7 | 61.4 | 81.6 | 85.1 | 114
6 | CC1=C(/C=C/C(C)=C/C=C/C(C)=C/C(=O)O)C(C)(C)CCC1 [Retinoic acid] | -14.6 | -35.6 | -15.7 | -14.2 | 14 | 20.2 | -18.3 | -6.2 | 44.9 | 7.2 | 169 | 125 | 101 | 135 | 82 | 123 | 124 | 104 | 108 | 116
7 | CN[C@H]1CC[C@@H](c2ccc(Cl)c(Cl)c2)c2ccccc21 [Sertraline hydrochloride] | -11.8 | -4.1 | -11.7 | 6.7 | 21.5 | -22.6 | -0.8 | 16.8 | 43 | 63.9 | 87.9 | 86.5 | 100 | 67.3 | 9 | 86.3 | 49 | 64.7 | 79.6 | 45.9
8 | CC(C(=O)O)c1cccc(C(=O)c2ccccc2)c1 (stereo not given) [Ketoprofen] |  |  |  |  |  |  |  |  |  |  | 107 | 81 | 110 | 80.8 | 107 | 98.7 | 94.9 | 90.9 | 106 | 122
9 | O=C1CCc2cc(OCCCCc3nnnn3C3CCCCC3)ccc2N1 [Cilostazol] | -16.9 | -13.2 | -8.8 | -11.2 | -4.9 | -35.5 | 0.8 | -5.6 | 1.6 | -5.9 | 85.6 | 114 | 78.9 | 101 | 87.6 | 97.5 | 87 | 119 | 121 | 102
10 | CCCCC1C(=O)N(c2ccccc2)N(c2ccccc2)C1=O [Phenylbutazone] | -11.5 | -0.3 | 0.6 | 1.9 | 7.4 | -15.8 | -19.8 | -18.3 | -35.2 | -13.6 | 89.1 | 79.7 | 87.2 | 117 | 131 | 99.3 | 115 | 101 | 113 | 120
11 | CCn1cc(C(=O)O)c(=O)c2cc(F)c(N3CCNC(C)C3)c(F)c21 (stereo not given) [Lomefloxacin hydrochloride] | -4.3 | -3.2 | 5.2 | 29.5 | -5.6 | 0.8 | -1.5 | 20.7 | -11.7 | 18.7 | 76.2 | 107 | 110 | 117 | 86.5 | 67.2 | 98.4 | 76.9 | 80.2 | 107
12 | CN(C)CCC(c1ccccc1)c1ccccn1 (stereo not given) [Pheniramine maleate] | -3.4 | -11.1 | -10.7 | -2.7 | -8.2 | -11.6 | -14.9 | 6.3 | -8.6 | -6.8 | 97.1 | 77.8 | 99.3 | 93.8 | 97.7 | 93.7 | 100 | 96.6 | 78.8 | 128
13 | Fc1ccc([C@@H]2CCNC[C@H]2COc2ccc3c(c2)OCO3)cc1 [Paroxetine hydrochloride hemihydrate (MW = 374.83)] | -12.1 | -24.4 | -4.1 | -13.9 | 13.9 | -28.2 | 38.9 | 11.8 | 54.8 | 45.2 | 59 | 131 | 70.9 | 102 | 52.6 | 89.7 | 85.8 | 69.6 | 68.5 | 54.7
14 | Cc1cc(C(C)(C)C)cc(C)c1CC1=NCCN1 [Xylometazoline hydrochloride] | -7.1 | -10.5 | 5.6 | -26.4 | -33.7 | -4.5 | -15.9 | -27.2 | -5.5 | 10 | 116 | 83.6 | 101 | 75.2 | 61.3 | 102 | 90.1 | 96.6 | 117 | 92.3
15 | O=C1NCC2(CCN(CCc3ccccc3)CC2)O1 [Fenspiride hydrochloride] | -1.3 | -10.3 | 9.1 | -11.2 | -8.8 | -2.5 | -30.8 | 0.9 | 0.8 | -0.6 | 106 | 98.6 | 100 | 105 | 106 | 77.9 | 126 | 118 | 110 | 114
16 | O=C(Nc1ccc([N+](=O)[O-])cc1Cl)c1cc(Cl)ccc1O [Niclosamide] | -10 | 20.4 | 53.1 | 47.6 | 66.4 | 25.8 | -17.5 | 26.1 | 27.2 | 36.4 | 78.9 | 44.7 | 68.3 | 20.7 | 45.4 | 84.1 | 60 | 0 | 10.6 | 19.5
17 | O=C(O)/C=C/c1ccc(O)c(O)c1 [Caffeic Acid] | -28.3 | -19.5 | -18 | -14.8 | -1.1 | -27 | -7.6 | -3.7 | -3.4 | -17 | 101 | 100 | 113 | 104 | 87.5 | 116 | 92.6 | 104 | 94.7 | 110
18 | CCCCCN(CCCCC)C(=O)C(CCC(=O)O)NC(=O)c1ccc(Cl)c(Cl)c1 (stereo not given) [Lorglumide sodium] | -14.7 | 16.7 | -4.2 | 1 | 7.5 | 19.9 | 6.1 | 20.3 | 3.8 | 15.2 | 114 | 92.8 | 116 | 113 | 119 | 110 | 126 | 109 | 119 | 83
19 | COc1ccc2c(c1)c(CC(=O)O)c(C)n2C(=O)c1ccc(Cl)cc1 [Indomethacin] | -4.3 | 1.4 | 15.5 | 9.5 | 14 | 3.9 | -23.4 | -12.5 | -22.2 | 3.3 | 118 | 138 | 91.1 | 103 | 119 | 123 | 109 | 94 | 91.9 | 92.2
20 | CN1CCN2c3ccccc3Cc3ccccc3C2C1 (stereo not given) [Mianserin hydrochloride] | -5.2 | 3.2 | 6.1 | 12.4 | 12.1 | -12 | 15.3 | -21.4 | 51 | 6.3 | 79.7 | 102 | 94.6 | 125 | 111 | 118 | 99.6 | 131 | 105 | 96.2
21 | Cn1cnc2c1c(=O)[nH]c(=O)n2C [Theobromine] | -30.1 | -12.9 | -3.9 | -8 | -28 | 6.2 | -15.9 | -2.8 | 9.5 | -7 | 92.1 | 81.2 | 98.6 | 108 | 99.1 | 112 | 107 | 114 | 136 | 133
22 | CCOC(=O)N1CCC(=C2c3ccc(Cl)cc3CCc3cccnc32)CC1 [Loratadine] |  |  |  |  |  |  |  |  |  |  | 106 | 100 | 101 | 115 | 85.2 | 105 | 79.8 | 78.6 | 64.1 | 94
23 | CN(C)CCCN1c2ccccc2Sc2ccc(C(F)(F)F)cc21 [Triflupromazine hydrochloride] |  |  |  |  |  |  |  |  |  |  | 66.8 | 90.7 | 62 | 49 | 44.2 | 85.7 | 82.5 | 59.6 | 78.7 | 53.3
24 | C[N+](C)(C)CCOC(N)=O [Carbachol] | -14.3 | 7.2 | -1.4 | -18.4 | -7.1 | -7.5 | -24.7 | -9.9 | 11.7 | -15.3 | 102 | 100 | 111 | 86.1 | 95.9 | 113 | 130 | 101 | 108 | 123
25 | CCOC(=O)C(C)(C)Oc1ccc(Cl)cc1 [Clofibrate] | -12.1 | -26.2 | -13.4 | -7.6 | -3.4 | -25 | -23 | -6.2 | 1.6 | 2.8 | 104 | 96.9 | 116 | 84.1 | 118 | 102 | 84.7 | 84.3 | 141 | 105

From entry 19 as far as 20, copied from above:
Row | Compound | loss of total cells (Human fetal astrocytes [1]; 1.39 µM) [%] | loss of total cells (Human fetal astrocytes [1]; 2.78 µM) [%] | loss of total cells (Human fetal astrocytes [1]; 5.56 µM) [%] | loss of total cells (Human fetal astrocytes [1]; 11.11 µM) [%] | loss of total cells (Human fetal astrocytes [1]; 22.22 µM) [%] | loss of total cells (Human fetal astrocytes [2]; 1.39 µM) [%] | loss of total cells (Human fetal astrocytes [2]; 2.78 µM) [%] | loss of total cells (Human fetal astrocytes [2]; 5.56 µM) [%] | loss of total cells (Human fetal astrocytes [2]; 11.11 µM) [%] | loss of total cells (Human fetal astrocytes [2]; 22.22 µM) [%] | synaptosome phagocytosis (Human fetal astrocytes [3]; 1.39 µM) [%] | synaptosome phagocytosis (Human fetal astrocytes [3]; 2.78 µM) [%] | synaptosome phagocytosis (Human fetal astrocytes [3]; 5.56 µM) [%] | synaptosome phagocytosis (Human fetal astrocytes [3]; 11.11 µM) [%] | synaptosome phagocytosis (Human fetal astrocytes [3]; 22.22 µM) [%] | synaptosome phagocytosis (Human fetal astrocytes [4]; 1.39 µM) [%] | synaptosome phagocytosis (Human fetal astrocytes [4]; 2.78 µM) [%] | synaptosome phagocytosis (Human fetal astrocytes [4]; 5.56 µM) [%] | synaptosome phagocytosis (Human fetal astrocytes [4]; 11.11 µM) [%] | synaptosome phagocytosis (Human fetal astrocytes [4]; 22.22 µM) [%]
19 | COc1ccc2c(c1)c(CC(=O)O)c(C)n2C(=O)c1ccc(Cl)cc1 [Indomethacin] | -4.3 | 1.4 | 15.5 | 9.5 | 14 | 3.9 | -23.4 | -12.5 | -22.2 | 3.3 | 118 | 138 | 91.1 | 103 | 119 | 123 | 109 | 94 | 91.9 | 92.2
20 | CN1CCN2c3ccccc3Cc3ccccc3C2C1 (stereo not given) [Mianserin hydrochloride] | -5.2 | 3.2 | 6.1 | 12.4 | 12.1 | -12 | 15.3 | -21.4 | 51 | 6.3 | 79.7 | 102 | 94.6 | 125 | 111 | 118 | 99.6 | 131 | 105 | 96.2
